Reference: the supplement of paper PMC8104966
Some of the results follow. Single values are uncertain here, since repeats match poorly.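 Fusion between ACE2-bearing and full-length-spike-bearing U2OS cells was measured by imaging as the percentage of nuclei with both cell types' fluorescent markers. An inhibitory hit is a non-toxic compound whose fusion z-score is below -3, more than three standard deviations beneath the plate's DMSO wells.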

test system: U2OS ACE2 x SARS-CoV-2 spike co-culture; test: cell-cell fusion (fraction fused) z-score vs plate DMSO control; higher = more fusion; conditions: 30 µM; 5 h; toxicity class: non-toxic, passed QC

Q: Which “cell-cell fusion (z-score)” value does the source give for `CN(C)CC(=O)OC[C@@H](O)[C@@H](O)[C@H](O)[C@@H](O)C(=O)[O-].[Na+]` here?
A: The value was inactive: 1.88.

Q: `CCCCCCCCCCCCCCCCC(C(=O)O)C(O)(CC(=O)O)C(=O)O` (stereo unspecified) was tested. Which “cell-cell fusion (z-score)” value did it give?
A: The value was inactive: 2.84.

Q: `CN1CCC(=C2c3ccccc3CC(=O)c3sccc32)CC1.O=C(O)/C=C/C(=O)O` [Ketotifen fumarate] was tested. Which “cell-cell fusion (z-score)” value did it give?
A: Its value is inactive: 2.63.

Q: How did the “cell-cell fusion (z-score)” value turn out when `Cl.O=C(c1ccc(OCCCc2c[nH]cn2)cc1)C1CC1` [Ciproxifan hydrochloride] was run?
A: The value was inactive: 1.81.

Q: How did the “cell-cell fusion (z-score)” value turn out when `C[C@]12CC[C@H](O)C[C@@H]1CC[C@@H]1[C@@H]2CC[C@]2(C)[C@@H](O)CC[C@@H]12` [5alpha-ANDROSTAN-3beta,17beta-DIOL] was run?
A: The value was inactive: 2.

Q: With `COc1cccc(C=O)c1OC` as the compound, how does the “cell-cell fusion (z-score)” value read?
A: The value was inactive: 1.22.

Q: Which “cell-cell fusion (z-score)” value does the source give for `O=C([O-])CF.[Na+]` here?
A: Its value is inactive: 3.11.

Q: Which “cell-cell fusion (z-score)” value does the source give for `COc1ccc(Cl)cc1NC(=O)Nc1cc(C)nc2ccccc12` here?
A: Its value is inactive: -1.13.

Q: Which “cell-cell fusion (z-score)” value does the source give for `CN(C)CCc1c[nH]c2ccc(C[C@H]3COC(=O)N3)cc12` here?
A: The value was inactive: 2.09.

Q: With `C[C@]12CC[C@@H]3c4ccc(OC(=O)c5ccccc5)cc4CC[C@H]3[C@@H]1CC[C@@H]2O` [Estradiol benzoate] as the compound, how does the “cell-cell fusion (z-score)” value read?
A: The value was inactive: 1.42.

Q: How did the “cell-cell fusion (z-score)” value turn out when `S=C(Nc1ccccc1)Nc1nccs1` [1-Phenyl-3-(2-thiazolyl)-2-thiourea] was run?
A: Its value is inactive: 1.32.

Q: How did the “cell-cell fusion (z-score)” value turn out when `CN=C(NC#N)NCCSCc1nc[nH]c1C` [Cimetidine] was run?
A: The value was inactive: 2.22.

Q: For `CCOc1cc([C@@H](CS(C)(=O)=O)N2C(=O)c3cccc(NC(C)=O)c3C2=O)ccc1OC` [Apremilast], which “cell-cell fusion (z-score)” value is on record?
A: The value was inactive: 1.86.

Q: With `NC(N)=Nc1nc(CSCC/C(N)=N/S(N)(=O)=O)cs1` [Famotidine] as the compound, how does the “cell-cell fusion (z-score)” value read?
A: The value was inactive: 2.8.

Q: Which “cell-cell fusion (z-score)” value does the source give for `Cc1cn[nH]c1` [4-Methylpyrazole] here?
A: The value was inactive: 3.24.

Q: Which “cell-cell fusion (z-score)” value does the source give for `NC(=O)Nc1cc(-c2cccc(F)c2)sc1C(=O)N[C@H]1CCCNC1` here?
A: The value was inactive: 0.747.

Q: `CCCCCCCCCCCCCCSCC(=O)O` [Tetradecylthioacetic acid] was tested. Which “cell-cell fusion (z-score)” value did it give?
A: Its value is inactive: 0.506.

Q: `O=C(O)CCCN1C(=O)c2cccc3cccc(c23)C1=O` was tested. Which “cell-cell fusion (z-score)” value did it give?
A: The value was inactive: 3.09.

Q: For `COc1cc2nc(N3CCN(C(=O)C4COc5ccccc5O4)CC3)nc(N)c2cc1OC.CS(=O)(=O)O` (stereo unspecified) [Doxazosin mesylate], which “cell-cell fusion (z-score)” value is on record?
A: The value was inactive: -0.417.

Q: `COc1cc2nc(N3CCN(C(=O)C4COc5ccccc5O4)CC3)nc(N)c2cc1OC.CS(=O)(=O)O` (stereo unspecified) was tested. Which “cell-cell fusion (z-score)” value did it give?
A: The value was inactive: 2.37.

Q: With `CC#C[C@@]1(O)CC[C@H]2[C@@H]3CCC4=CC(=O)CCC4=C3[C@H](c3ccc(N(C)C)cc3)C[C@@]21C` [Mifepristone (Mifeprex)] as the compound, how does the “cell-cell fusion (z-score)” value read?
A: The value was inactive: 1.44.

Q: How did the “cell-cell fusion (z-score)” value turn out when `CC(C)NCC(O)COc1cccc2ccccc12.Cl` (racemic) was run?
A: Its value is inactive: -1.92.

Q: For `O=C(Nc1c(Cl)c[n+]([O-])cc1Cl)c1ccc(OC(F)F)c(OCC2CC2)c1` [Roflumilast N-oxide], which “cell-cell fusion (z-score)” value is on record?
A: Its value is inactive: 0.901.

Q: Which “cell-cell fusion (z-score)” value does the source give for `Nc1ncnc2[nH]cnc12` here?
A: The value was inactive: 2.43.

Q: For `CC(=O)Nc1ccc(OC(C)=O)cc1`, which “cell-cell fusion (z-score)” value is on record?
A: The value was inactive: -0.346.

Q: For `CCOC(=O)[C@H](CCc1ccccc1)N[C@H]1CCc2ccccc2N(CC(=O)O)C1=O.Cl` [Benazepril hydrochloride], which “cell-cell fusion (z-score)” value is on record?
A: The value was inactive: 1.29.

Q: How did the “cell-cell fusion (z-score)” value turn out when `Cc1c(C(=O)N2CCOc3ccc(-c4ccc(N)nc4)cc3C2)ccc(S(C)(=O)=O)c1F` was run?
A: Its value is inactive: 0.167.

Q: `CCN(CC)CCNC(=O)c1cc(Cl)c(N)cc1OC.Cl` [Metoclopramide hydrochloride] was tested. Which “cell-cell fusion (z-score)” value did it give?
A: The value was inactive: 2.18.

Q: Which “cell-cell fusion (z-score)” value does the source give for `COc1ccccc1OCC(O)CO` (stereo unspecified) [Guaifenesin] here?
A: The value was inactive: 2.72.

Q: How did the “cell-cell fusion (z-score)” value turn out when `O=C(Nc1cnn2ccc(N3CCC[C@@H]3c3cc(F)ccc3F)nc12)N1CC[C@H](O)C1.O=S(=O)(O)O` [Larotrectinib sulfate] was run?
A: Its value is inactive: 1.96.

Q: How did the “cell-cell fusion (z-score)” value turn out when `CCN(CC)C(C)CN1c2ccccc2Sc2ccccc21.Cl` (stereo unspecified) was run?
A: Its value is inactive: 0.459.

Q: For `CCN(CC)C(C)CN1c2ccccc2Sc2ccccc21.Cl` (stereo unspecified) [Ethopropazine hydrochloride], which “cell-cell fusion (z-score)” value is on record?
A: Its value is inactive: 2.56.

Q: For `CCC(COC(=O)c1cc(OC)c(OC)c(OC)c1)(c1ccccc1)N(C)C.O=C(O)/C=C\C(=O)O` (stereo unspecified), which “cell-cell fusion (z-score)” value is on record?
A: Its value is inactive: 1.81.

Q: `CCN(CC)CC#CCOC(=O)C(O)(c1ccccc1)C1CCCCC1.Cl` (stereo unspecified) [Oxybutynin hydrochloride] was tested. Which “cell-cell fusion (z-score)” value did it give?
A: Its value is inactive: 3.38.

Q: `Cl.O=C1CN2Cc3c(ccc(Cl)c3Cl)NC2=N1` [Anagrelide hydrochloride] was tested. Which “cell-cell fusion (z-score)” value did it give?
A: The value was inactive: 1.55.

Q: `COC(=O)C(N)Cc1ccc(Cl)cc1.Cl` (racemic) [DL-p-Chlorophenylalanine methyl ester hydrochloride] was tested. Which “cell-cell fusion (z-score)” value did it give?
A: The value was inactive: 0.812.

Q: With `CNCCCC1c2ccccc2C=Cc2ccccc21.Cl` [Protriptyline hydrochloride] as the compound, how does the “cell-cell fusion (z-score)” value read?
A: Its value is inactive: 2.82.

Q: Which “cell-cell fusion (z-score)” value does the source give for `C[N+]1(C)CCCC(OC(=O)C(O)(c2ccccc2)c2ccccc2)C1.[Br-]` (stereo unspecified) here?
A: Its value is inactive: 1.44.

Q: How did the “cell-cell fusion (z-score)” value turn out when `C[C@@H]1CCN(C(=O)CC#N)C[C@@H]1N(C)c1ncnc2[nH]ccc12.O=C(O)CC(O)(CC(=O)O)C(=O)O` [Tofacitinib Citrate] was run?
A: The value was inactive: 2.22.

Q: For `CC(C)NC[C@H](O)c1ccc(O)c(O)c1.Cl` [(-)-Isoproterenol hydrochloride], which “cell-cell fusion (z-score)” value is on record?
A: The value was inactive: -0.0274.

Q: Which “cell-cell fusion (z-score)” value does the source give for `CC1=C(/C=C/C(C)=C/C=C/C(C)=C/C(=O)O)C(C)(C)CCC1` here?
A: Its value is inactive: 2.51.

Q: For `CC1=C(/C=C/C(C)=C/C=C/C(C)=C/C(=O)O)C(C)(C)CCC1` [Retinoic acid], which “cell-cell fusion (z-score)” value is on record?
A: Its value is inactive: 0.864.

Q: Which “cell-cell fusion (z-score)” value does the source give for `CCN1CCN(C(=O)NC(C(=O)N[C@@H]2C(=O)N3[C@@H]2SC(C)(C)[C@@H]3C(=O)[O-])c2ccccc2)C(=O)C1=O.[Na+]` (stereo partly specified) here?
A: Its value is inactive: 1.81.

Q: For `NC(=O)NC(=O)Cc1ccccc1`, which “cell-cell fusion (z-score)” value is on record?
A: Its value is inactive: 0.129.

Q: With `Cl.O=c1n(CCCN2CCN(c3cccc(Cl)c3)CC2)nc2ccccn12` as the compound, how does the “cell-cell fusion (z-score)” value read?
A: The value was inactive: 1.78.

Q: Which “cell-cell fusion (z-score)” value does the source give for `Cl.O=c1n(CCCN2CCN(c3cccc(Cl)c3)CC2)nc2ccccn12` [Trazodone hydrochloride] here?
A: Its value is inactive: 2.69.
